Results as given in PMC9866728, “Dosing Methods to Enable Cell-Based In Vitro Testing of Complex Substances: A Case Study with a PAH Mixture” (Toxics, 2022).

Assay: not given
Conditions: ratio of PAH rate constant to that of naphthalene; ref Smith et al. 2010 [24]; cited from earlier work

Row | SMILES | Smith et al. 2010 Kx/(KNaph) Value
1 | c1ccc2c(c1)ccc1cc3c(ccc4ccccc43)cc12 [Dibenzo[a,h]anthracene] | 0.4622
2 | c1cc2ccc3cccc4ccc(c1)c2c34 [Pyrene] | 0.5672
3 | c1ccc2c(c1)cc1ccc3cccc4ccc2c1c34 [Benzo[a]pyrene] | 0.5546
4 | c1ccc2ccccc2c1 [Naphthalene] | 1
5 | c1ccc2cc3ccccc3cc2c1 [Anthracene] | 0.7647
6 | c1ccc2c(c1)ccc1ccccc12 [Phenanthrene] | 0.6975
7 | c1ccc2c(c1)-c1cccc3cccc-2c13 [Fluoranthene] | 0.5924
8 | c1ccc2c(c1)Cc1ccccc1-2 [Fluorene] | 0.7941
9 | c1ccc2c(c1)ccc1c3ccccc3ccc21 [Chrysene] | 0.5756
10 | c1ccc2cc3c(ccc4ccccc43)cc2c1 [Benzo[a]anthracene] | 0.5798
11 | c1cc2c3c(cccc3c1)CC2 [Acenaphthene] | 0.7563

Assay: Loading kinetics of silicone micro-O-rings from methanol PAH solution (GC-MS/MS)
Assay type: physicochemical
Conditions: not given

Row | SMILES | Kx/(KNaph) Value
12 | Cc1ccc2ccccc2c1 [2-Methylnaphthalene] | 0.7858
13 | c1ccc2c(c1)-c1cccc3c1c-2cc1ccccc13 [Benzo[b]fluoranthene] | 0.8658
14 | c1ccc(-c2ccccc2)cc1 [Biphenyl] | 0.9737
15 | c1cc2cccc3c4cccc5cccc(c(c1)c23)c54 [Perylene] | 0.997
16 | c1cc2ccc3cccc4ccc(c1)c2c34 [Pyrene] | 0.654
17 | c1ccc2c(c1)-c1ccc3ccc4cccc5cc-2c1c3c45 [Indeno[1,2,3-cd]pyrene] | 1.238
18 | c1cc2ccc3ccc4ccc5cccc6c(c1)c2c3c4c56 [Benzo[g,h,i]perylene] | 1.574
19 | c1ccc2c(c1)ccc1c3ccccc3ccc21 [Chrysene] | 0.004182
20 | c1ccc2cc3c(ccc4ccccc43)cc2c1 [Benzo[a]anthracene] | 0.004586
21 | Cc1cccc2ccccc12 [1-Methylnaphthalene] | 0.7859

Same assay, conditions: ratio of PAH rate constant to that of naphthalene, this study

Row | SMILES | Kx/(KNaph) Value
22 | C1=Cc2cccc3cccc1c23 [Acenaphthylene] | 0.6696
23 | c1ccc2cc3ccccc3cc2c1 [Anthracene] | 0.8025
24 | c1ccc2c(c1)ccc1ccccc12 [Phenanthrene] | 0.8755
25 | c1ccc2c(c1)-c1cccc3cccc-2c13 [Fluoranthene] | 0.6891
26 | c1ccc2c(c1)Cc1ccccc1-2 [Fluorene] | 0.7878
27 | c1ccc2cc3c(cc2c1)-c1cccc2cccc-3c12 [Benzo[k]fluoranthene] | 0.8799
28 | c1cc2c3c(cccc3c1)CC2 [Acenaphthene] | 0.6591
